This assay concerns the target T1, His-tagged wild type UDP-N-acetylglucosamine 2-epimerase/N-acetylmannosamine kinase (GNE) (human) (UniProt Q9Y223).
T1 sequence: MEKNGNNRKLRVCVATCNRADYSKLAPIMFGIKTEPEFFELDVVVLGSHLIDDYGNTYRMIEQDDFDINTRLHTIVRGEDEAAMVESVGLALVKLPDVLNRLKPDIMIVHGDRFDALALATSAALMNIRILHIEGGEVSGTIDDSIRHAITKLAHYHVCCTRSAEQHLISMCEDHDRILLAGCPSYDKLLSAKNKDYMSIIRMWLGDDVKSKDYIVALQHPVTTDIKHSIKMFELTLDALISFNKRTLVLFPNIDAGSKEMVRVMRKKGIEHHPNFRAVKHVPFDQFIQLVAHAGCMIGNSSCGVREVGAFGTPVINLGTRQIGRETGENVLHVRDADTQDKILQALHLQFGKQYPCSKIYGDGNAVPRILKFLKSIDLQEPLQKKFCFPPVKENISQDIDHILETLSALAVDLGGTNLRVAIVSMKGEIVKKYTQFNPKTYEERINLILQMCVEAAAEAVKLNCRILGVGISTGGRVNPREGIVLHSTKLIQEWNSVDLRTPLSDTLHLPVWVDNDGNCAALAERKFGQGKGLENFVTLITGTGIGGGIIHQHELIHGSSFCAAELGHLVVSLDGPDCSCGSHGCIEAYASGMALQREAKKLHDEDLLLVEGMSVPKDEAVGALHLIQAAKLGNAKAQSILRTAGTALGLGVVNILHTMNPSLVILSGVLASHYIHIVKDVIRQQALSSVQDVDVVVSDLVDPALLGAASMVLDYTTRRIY
Kind of assay: affinity purification with mass spectrometry; in vitro binding assay: His-tagged GNE pre-bound to Ni-NTA beads, incubated 2 h at 4°C with pooled BIAcore-positive anion-exchange fractions (#11-13, #14-16) of muscle cell lysate; washed in NaPi buffer pH 7.5 with 100 mM NaCl; SDS-PAGE, bands identified by MS; only the target purified. On the technique in general: In SPR one partner is held on a chip, and binding of the other changes the refractive index at the surface.

Protein sequences, listed by entry. Tags and fused reporters are not part of them.
UniProt P12814: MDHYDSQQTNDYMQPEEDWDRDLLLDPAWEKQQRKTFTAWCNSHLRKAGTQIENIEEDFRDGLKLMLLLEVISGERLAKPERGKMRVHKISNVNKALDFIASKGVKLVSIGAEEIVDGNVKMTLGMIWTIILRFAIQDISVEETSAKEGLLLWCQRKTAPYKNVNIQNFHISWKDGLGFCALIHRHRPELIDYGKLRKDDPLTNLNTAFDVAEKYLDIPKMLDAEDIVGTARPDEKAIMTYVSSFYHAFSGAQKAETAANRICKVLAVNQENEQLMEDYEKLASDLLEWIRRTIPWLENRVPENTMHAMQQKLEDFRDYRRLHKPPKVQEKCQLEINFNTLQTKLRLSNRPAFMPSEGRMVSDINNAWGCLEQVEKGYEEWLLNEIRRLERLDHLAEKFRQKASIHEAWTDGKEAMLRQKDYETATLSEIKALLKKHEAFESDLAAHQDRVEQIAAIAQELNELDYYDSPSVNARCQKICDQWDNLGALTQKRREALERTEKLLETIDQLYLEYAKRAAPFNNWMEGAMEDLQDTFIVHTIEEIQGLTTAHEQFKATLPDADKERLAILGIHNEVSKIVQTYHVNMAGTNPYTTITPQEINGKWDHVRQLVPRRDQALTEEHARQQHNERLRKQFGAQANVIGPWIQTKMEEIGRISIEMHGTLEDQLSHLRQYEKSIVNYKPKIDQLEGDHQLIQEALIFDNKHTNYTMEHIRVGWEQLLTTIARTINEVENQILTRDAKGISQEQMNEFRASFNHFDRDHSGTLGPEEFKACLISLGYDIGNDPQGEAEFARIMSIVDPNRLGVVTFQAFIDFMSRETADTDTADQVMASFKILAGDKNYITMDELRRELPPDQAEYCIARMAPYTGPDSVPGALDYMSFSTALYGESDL

No constants are given. Whether binding was seen depends on the method and setting. Binding seen in cells or lysates may run through a third protein. These calls come from enrichment with a bait or labelling near it, and not all partners need be listed. Where a sequence is shown, tags or fusion partners need not be part of it.

Here are results for one substance from PMC2423482, “UDP-N-Acetylglucosamine 2-Epimerase/N-Acetylmannosamine Kinase (GNE) Binds to Alpha-Actinin 1: Novel Pathways in Skeletal Muscle?” (PLoS ONE, 2008).

Take “α-actinin 1 of human skeletal muscle primary culture cell lysate (from UniProt P12814 1-892)”: the binding result is “binds”.
